Assay results from patent publication US20060140991A1, “Pharmaceutical preparations having an improved solubility” (AJINOMOTO CO. INC, priority 2003, published 2006).
At least one read-out could not be matched to a standard name with certainty.

Assay: Solubilization by fixing the micelle structure: drug concentration in the clear neutral liquid
Type: physicochemical
Experimental: (§1) About 10 mg of AP-1067 was dispersed into 1 mL of water. An aqueous solution of sodium hydroxide was added thereto to adjust the solution to pH=13 or above. The suspension was heated up to 45° C. to obtain a clear alkali aqueous liquid containing solubilized AP-1067 wherein a micelle of AP-1067 was formed. (AP-1067 concentration: about 10 mg/mL)
(§2) 40 mg of sodium dodecyl sulfate (SDS) was added to the alkali aqueous liquid to fix the formed micelle structure. Then, an aqueous solution of hydrochloric acid was added dropwise thereto and its pH was adjusted to neutral to obtain a clear neutral liquid containing slubilized AP-1067 wherein the micelle of AP-1067 existed in the fixed manner. The concentration of AP-1067 at that time was 9.1 mg/mL.
as §1, with “solution of” for “liquid containing solubilized”
as §2, with “100 mg” for “40 mg”, “of Polysorbate 80” for “of sodium dodecyl sulfate (SDS)”, “aqueous solution” for “aqueous liquid”, “containing solubilized” for “containing slubilized”, “was 10.3” for “was 9.1”
10 mg of AP-1067 and 40 mg of SDS were dispersed into 1 mL of water. The suspension was heated up to 45° C., and the ultrasonic treatment was conducted for 1.5 hours.
10 mg of AP-1067 and 100 mg of Polysorbate 80 were dispersed into 1 mL of water. The suspension was heated up to 45° C., and the ultrasonic treatment was conducted for 1.5 hours.
10 mg of APC0576 and 83 mg of cetylpyridinium chloride monohydrate were dispersed and dissolved into 1 mL of an aqueous solution of 1.5 mol/L hydrochloric acid. […]

| Structure (SMILES) | improvement of solubility by the method of solubilization (Example 3 (cetylpyridinium chloride) versus solubility in water at room temperature) | improvement of solubility by the method of solubilization (Example 1 (SDS) versus solubility in water at room temperature) | improvement of solubility by the method of solubilization (Example 2 (Polysorbate 80) versus solubility in water at room temperature) |
| --- | --- | --- | --- |
| CC1(C)C[C@@H]1C(=O)Nc1ccc(Oc2ccc(NC(=O)[C@H]3CC3(C)C)cn2)cc1 [APC0576, 5-(((S)-2,2-dimethyl-cyclopropancarbonyl)amino)-2-(4-(((S)-2,2-dimethylcyclopropancarbonyl)amino)phenoxy)pyridine] | about 4400 times |  |  |
| Cl.NS(=O)(=O)c1ccc(/C=C/CN2CCC(=C3c4ccccc4C=Cc4ccccc43)CC2)cc1 [AP-1067, (4-(5H-dibenzo[a,d]cyclohepten-5-ylidene)-1-[3-[4-sulfamoylphenyl]-2(E)-propenyl]-piperidine, monohydro-chloride)] |  | about 300 times | about 300 times |
